Test results as given in PubChem BioAssay AID1458 (National Center for Advancing Translational Sciences (NCATS), 2008).
Hit rate of the full screen: of about 210,000 compounds, about 5,900 (2.8%) were called active. Inconclusive results (about 5%) are left out. The call rests on the fitted dose curve; in most records, active means well fitted activation curve with a large enough effect; inconclusive means small, poorly fitted or top-dose-only effect; inactive means no such curve, though single readings can be large or run the other way. The list shows a part of the results, in another mix than the full data. Entries without a call were filed so in the source.
Potency means the concentration at half of the fitted maximal effect.

Experiment: qHTS Assay for Enhancers of SMN2 Splice Variant Expression; further: nearly all actives have a fitted effect of over 55% in size; on activity change, positive = activation: % of control where 0% means no effect
Conditions: HEK293 SMN2-luciferase splicing reporter, luminescence, 30-36 h; activity change, positive = activation: at 46.1 µM (top of the series) unless noted
How it was run: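 HEK293 cells carry an SMN2 […]–luciferase reporter in which exon 7 inclusion puts luciferase in frame. Cells were plated 10-12 h before compound addition, then incubated 30-36 h at 37C. ONE-Glo luminescence was read; sodium butyrate at 4.5 mM final served as control.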
For `CCC1(C)OC(=O)NN(c2ccc(C)cc2)C1(C)O` (centres undefined), the activity change, positive = activation was 19.2%. For `CCOC(=O)C1CCN(C(=O)C2CCN(c3nc4ccc(OC)cc4s3)CC2)CC1`, the “activity change, positive = activation” value was inactive: -45.2%. With `O=C(O)c1ccc(NCc2cccnc2)cc1` the activity change, positive = activation was 35.7%. Work on `Cc1cccc(Sc2c([N+](=O)[O-])ncn2C)c1` yielded an activity change, positive = activation of -54.9%. For `O=[N+]([O-])c1ccc(N2CCN(CCOc3nonc3-c3ccccc3)CC2)c(Cl)c1`, the “activity change, positive = activation” value was inactive: -47.7%. With `CC(C)=CC(=O)Nc1ccc(Br)cc1` the Potency was active: 12.6 µM. Molecule `Cc1nc2ccccc2n1CC(=O)NCc1ccccc1` has an activity change, positive = activation of -71.8%. For `Nc1c(C(=O)OCC2CCCO2)c2nc3ccccc3nc2n1-c1ccc2c(c1)OCCO2` (centres undefined), the activity change, positive = activation was -50.9%. For `c1ccc(-c2nc3ccccn3c2NCc2ccc3c(c2)OCO3)cc1`, the “activity change, positive = activation” value was inactive: -34.6%. For `Cc1ccc(-c2cc(C(=O)N/N=C/C=C/c3ccccc3)n[nH]2)s1`, the “activity change, positive = activation” value was inactive: -30.3%. Work on `Cc1ccc(C)c(N2CCN(C(=O)Cc3ccc(-n4c(=O)[nH]c5ccsc5c4=O)cc3)CC2)c1` yielded an activity change, positive = activation of -46.5%. In the case of `Cn1c(/C(C#N)=C/Nc2ccccn2)nc2ccccc21`, the activity change, positive = activation is reported as -37.2%. For `COC(=O)CSc1nnc(-c2ccccc2OC)o1`, the activity change, positive = activation was 21%. Work on `CCCCCn1c(CNC(=O)CCC)nc2ccccc21` yielded an activity change, positive = activation of 49.8%. In the case of `CCOC(=O)c1cccc(NC(=O)CCS(=O)(=O)c2cccc3nsnc23)c1`, the activity change, positive = activation is reported as 32.9%. With `CCC(=O)N1CCN(c2cc(C)ccc2C)CC1` the activity change, positive = activation was 40.1%. `CCNCCC(=O)N1c2ccccc2Sc2ccc(NC(=O)OCC)cc21` showed an activity change, positive = activation of -52.9%. Molecule `O=C(c1ccc(S(=O)(=O)c2ccccc2Cl)c([N+](=O)[O-])c1)N1CCCCCC1` has an activity change, positive = activation of -49.9%. For `Cc1ccc(N/N=C/c2ccc3c(c2)OCCO3)cc1Cl`, the Potency was active: 20 µM. In the case of `C[C@@H]1C=C[C@](Cc2ccccc2)(C(=O)NCC2CC2)N1C(=O)c1ccccc1`, the “activity change, positive = activation” value is reported as inactive: 14.6%. Molecule `O=C(O)c1ccccc1OCCOCCOc1ccccc1C(=O)O` has an activity change, positive = activation of 47.6%. `CNC(=O)c1cc2c(=O)n3cccc(C)c3nc2n(C(C)C)c1=N` showed an activity change, positive = activation of 60%. For `Cc1ccc(C(=O)Nc2cnc3ccccc3c2)cc1`, the activity change, positive = activation was -86%. With `COc1ccc(NC(=O)c2ccccn2)cc1` the Potency was active: 1.58 µM. With `COc1cccc(-c2cc(C(=O)Nc3c(C)nn(Cc4ccccc4)c3C)no2)c1` the “activity change, positive = activation” value was inactive: -55%. In the case of `O=C(/C(Br)=C/Nc1cc(Cl)ccc1Cl)C(F)(F)F`, the activity change, positive = activation is reported as 31%. With `CN(C)/C=C/C(=O)c1cnc(-c2ccc(Cl)cc2)s1` the Potency was active: 10 µM. With `COc1ccccc1C(=O)N1c2ccccc2C(C)(c2ccc(Cl)cc2)CC1(C)C` (centres undefined) the “activity change, positive = activation” value was inactive: -54.2%. In the case of `O=C(Nc1nc(-c2ccccn2)cs1)c1ccc(Br)s1`, the “activity change, positive = activation” value is reported as inactive: -95.7%. For `COc1ccc(OC)c(NC(=O)c2sc3nc(Cc4ccccc4)cc(C(F)(F)F)c3c2N)c1`, the activity change, positive = activation was 43%. For `c1ccc(-c2cc(CSc3nc4ccccc4[nH]3)on2)cc1`, the activity change, positive = activation was -80.1%. In the case of `COc1ccc(C(=O)CSc2nnc(CNC(=O)c3ccc(OC)cc3)n2C)cc1`, the activity change, positive = activation is reported as 21.4%. In the case of `Cc1cc(=O)[nH]c(SCC2(O)C3CC4CC(C3)CC2C4)n1` (centres undefined), the activity change, positive = activation is reported as 32.7%. In the case of `O=C(Nc1cccc(F)c1)N1CC2(CCN(C(=O)c3ccncc3)CC2)C1`, the “activity change, positive = activation” value is reported as inactive: -32.3%. In the case of `CC(=O)c1ccc(N2CCN(c3ncnc4onc(-c5ccc(Cl)cc5)c34)CC2)cc1`, the “activity change, positive = activation” value is reported as inactive: -35.3%. In the case of `C/C(=N\N1C(=O)c2ccccc2NC1c1ccco1)c1ccccc1O` (centres undefined), the Potency is reported as active: 3.98 µM. `COc1ccc(-c2c(C)nn3c(-c4ccccc4)cc(-c4ccccc4)nc23)cc1` gave an activity change, positive = activation of 36.7%. For `Cc1cc(=O)c2cc(Cl)ccc2[nH]1`, the activity change, positive = activation was -33%. Work on `CCOC(=O)Cn1c(N2CCOCC2)nc2c1c(=O)[nH]c(=O)n2C` yielded an activity change, positive = activation of 40%. In the case of `Cc1ccccc1Cn1nnc(-c2ccc3c(c2)OCO3)n1`, the Potency is reported as active: 3.98 µM. Molecule `CN1C(CC(=O)c2ccccc2)CCCC1CC(O)c1ccccc1` (centres undefined) has an activity change, positive = activation of 30.2%. For `CN(C)S(=O)(=O)Nc1ccc(C(=O)O)cc1`, the activity change, positive = activation was 22%. With `COc1ccc(C2SCCN2S(=O)(=O)c2ccc(F)cc2)cc1OC` (centres undefined) the “activity change, positive = activation” value was inactive: -31.8%. In the case of `N#Cc1c(/N=C/c2ccco2)sc2c1CCC2`, the activity change, positive = activation is reported as 37.1%. `COc1ccc(-c2ccc(SCC(=O)Nc3cccc(C(C)=O)c3)nn2)cc1OC` gave an activity change, positive = activation of 75%. Work on `O=C(Nc1ccc([N+](=O)[O-])cc1)N1CCCCC1` yielded an activity change, positive = activation of 38.6%. Work on `CN(C)c1ccc(-c2n(C)c3ccccc3[n+]2C)cc1` yielded an activity change, positive = activation of -97.1%. `C/C(=N\Nc1cc(-c2ccccc2)nc(-c2ccccc2)n1)c1ccc(O)c(C)c1` showed an activity change, positive = activation of -77.4%. With `O=C(NNS(=O)(=O)c1ccc(F)cc1)C1CC(c2cccnc2)=NO1` (centres undefined) the “activity change, positive = activation” value was inactive: -7.91%. In the case of `N#C/C(=C\C=C\c1ccccc1)C(=O)Nc1ccccc1`, the “activity change, positive = activation” value is reported as inactive: 15.3%. Molecule `COc1ccc(CCNC(=O)c2nnn(-c3ccc4c(c3)OCCO4)c2N)cc1OC` has an activity change, positive = activation of -46.2%. `COC(=O)c1c(NC(NC(C)=O)C(Cl)(Cl)Cl)sc2c1CCCC2` (centres undefined) showed an activity change, positive = activation of -43.6%. `CCOC(=O)c1[nH]c(COC(=O)C2CC(=O)N(Cc3ccccc3)C2)c(C(=O)OCC)c1C` (centres undefined) gave an activity change, positive = activation of 31.3%. Molecule `O=C(c1cnn2c(C(F)(F)F)cc(-c3ccc(Br)cc3)nc12)N1CCOCC1` has an activity change, positive = activation of -35.6%.
